In article doi:10.1101/2024.07.25.605061:
Results are given in words; binding and its absence hold for the method and conditions named. Binding seen in cells or lysates may run through a third protein. Here binding means that the protein was enriched with, or labelled near, the bait; the list need not be complete. Sequences can lack the tags named with a protein.

T1: GTE4-FLAG (Arabidopsis thaliana) (UniProt Q9LNC4)
T1 sequence: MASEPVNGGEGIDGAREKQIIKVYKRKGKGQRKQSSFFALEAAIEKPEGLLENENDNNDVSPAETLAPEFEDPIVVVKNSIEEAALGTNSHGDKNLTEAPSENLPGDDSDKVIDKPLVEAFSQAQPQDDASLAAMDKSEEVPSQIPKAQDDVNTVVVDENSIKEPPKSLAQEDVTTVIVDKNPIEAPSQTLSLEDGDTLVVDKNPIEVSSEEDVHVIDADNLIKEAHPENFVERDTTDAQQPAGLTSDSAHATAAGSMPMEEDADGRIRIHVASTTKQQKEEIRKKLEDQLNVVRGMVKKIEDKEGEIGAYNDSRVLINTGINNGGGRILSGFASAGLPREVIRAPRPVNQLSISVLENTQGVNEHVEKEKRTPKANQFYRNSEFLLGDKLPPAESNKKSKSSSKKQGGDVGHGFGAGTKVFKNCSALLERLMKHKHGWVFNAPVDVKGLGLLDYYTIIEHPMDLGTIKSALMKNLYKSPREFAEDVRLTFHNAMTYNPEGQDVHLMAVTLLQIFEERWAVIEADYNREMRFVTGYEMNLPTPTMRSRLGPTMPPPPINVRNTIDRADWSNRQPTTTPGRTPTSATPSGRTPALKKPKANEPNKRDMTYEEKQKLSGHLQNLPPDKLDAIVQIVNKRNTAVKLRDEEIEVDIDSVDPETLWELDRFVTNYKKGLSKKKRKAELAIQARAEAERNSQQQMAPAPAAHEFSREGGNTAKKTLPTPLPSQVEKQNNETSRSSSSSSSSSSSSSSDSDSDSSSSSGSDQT

T2: EML2-FLAG (Arabidopsis thaliana) (UniProt Q9FG29)
T2 sequence: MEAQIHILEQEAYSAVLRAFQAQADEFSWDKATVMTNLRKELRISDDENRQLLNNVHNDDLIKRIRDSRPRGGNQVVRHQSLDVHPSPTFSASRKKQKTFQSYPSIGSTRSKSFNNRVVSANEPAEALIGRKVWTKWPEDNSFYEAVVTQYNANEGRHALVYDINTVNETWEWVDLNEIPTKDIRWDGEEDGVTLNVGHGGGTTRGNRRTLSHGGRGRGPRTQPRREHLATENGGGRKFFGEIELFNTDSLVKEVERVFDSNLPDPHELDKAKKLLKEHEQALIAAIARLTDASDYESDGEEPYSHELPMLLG

B1: EML3 (endogenous) (protein, UniProt F4K2F0 1-397)
chain: MDYRPSDSSGTDDDLPPSHQGRYQRNARPTGNGRPSVLNSAPLSRVHNEMETQIHLIEQEAYSSILRAFKAQSDAITWEKESLITELRKELRVSDEEHRELLSRVNADEMIRRIREWRKANSLQSSVPQLVHDAPSPAVSGSRKKQKTSQSIASLAMGPPSPSLHPSMQPSSSALRRGGPPPGPKTKKPKTSMQYPSTGIAGRPQAGALTNEPGESGSYDPLVGRKVWTKWPDDNQYYEAVITDYNPVEGRHALVYDINSANETWEWVNLKEISPGDIRWEGEDPGISRKGGHPGQGRGTKTMARGGPASNAGGRGRGSMRMQQPKTQNGIGKKALGEIEILHTETLLKEVEKVFGSVNPNPAEVEKAKRVLRDHELALMDAIAKLEEISDGESGNI
B2: GTE10 (endogenous) (protein, UniProt Q9FGW9 1-1061)
chain: MGKARKHSRGRPSGFVPDYMQAVEPDEFVYSERMNSEASPPLKRRRFGLNGDNNGVSKEVLSLSKMSRSERKNLVHKLKMELQQVRDLSKKIASFSSDTVLLSPYNDHSCSDGPRRPPPENFATFVGSQGKKRPPVRSDKQRNKKGPSRLNVPTSYTVASVMKECETLLNRLWSHKSGWPFRTPVDPVMLNIPDYFNVIKHPMDLGTIRSRLCKGEYSSPLDFAADVRLTFSNSIAYNPPGNQFHTMAQGISKYFESGWKSIEKKIPMSKPPVIPLTSSASLESEIPFEVAPMRKKEAAMNDNKLRVEPAKLVMTDGEKKKLGQDLMALEEDFPQKIADLLREQSGSDGQSGEGEIEIDIEALSDEILFMVRKLLDDYLREKKKSMEKSEPCEMEIVHDSGFSNSPLQPSKGDLQIDEDVDIVGGNDPSVSSHPPLKIEKDAACRNNESSSSSSSSSESGSSSSDSDSCSSSGSETDSIKASKPTSREEKKQPGVGIDKKEDDSNSEKIVVNDSLNELDQLEHTVGEKSTTMDAVVLVPDEETAPPERQISPDSPDKRYRAAFLKNRFADTIMKAREKAFTKGEKGDPEKLRIEREEFEKRLREEKERLQAEAKAAEEARRKAKAEAAEKARREREQEREAARQALQKMEKTVEINEGIRFMEDLQMLRATGTEGDQLPTSMEVMSPKFSEDMLGLGSFKMESNSNPLEHLGLYMKMDEDEDEEEDPPHFSQRKVEDNPFDRSEKQEHSPHRVEGEDQLVSGNEEPVSQEAHDNGDQEDGKPINPNEIERQLENMPEQESGVGDKEEQETEVVDMRKQENEVVDMGVEEVHPLDRSEGRTLSPHRKEREDPRASGNEESVSEKAQDYENQRDEKINQSEREEQLENVLEQESSRDDDTGEQETEVVGVGKELSLDKSEGQTLSPHREEGENQLDCGNEELVSQKTQDNGNQEDEKSINKIEGEEQLANVPEQESRVTEKEEQETGVVDLGEQKSEVVEKGVEENEAVDNGEGVQGTEVSDKGGNETVVDGNGKVETEVVDKAGQKTDLVDQGEEDIDVEID
B3: GTE7 (endogenous) (protein, UniProt Q7Y214 1-590)
chain: MAPAVFATLNEPSYQEQCGAVFMRKFTNQSVTENTNNLPLFNPNPNPNFERSNSSKQCDDSSEFGSYATFNLAGYTSSQLRELKKRFTSELKQIRILRERIESGTFETQQGYTIPEVPAVRSAPLNNFTGEKNDLGPKKKKQKKNVSGLKRSNQFGPSDPESEKLLAGMLNTCSQILVKLMKHKWAWVFNTPVDVVGLGLHDYHQVVKKPMDLGTVKLNLDKGFYVSPIDFATDVRLTFDNAMTYNPKGQDVYFMADKLLDHFDGMFNPAFKKFEAQQLKLTGSSSRPEPDFKPDFKQRQWNQNPPMVANPRKGTEQISIAKKLDSVKPPQPTLPPQLVEPSRVQSPSPPPPPPVIQPELPQPQPPPPQLEIEVEAPPDVSEVSKGRKGKLPKPKAKDPNKRLMTMEEKSKLGMNLQDLPPEKLGQLLQILRKRNGHLAQDGDEIELDIEAVDNETLWELDRFVTNYKKMASKIKRQGFIRNVSTPPRNMASVAEMGSAEKRTRRGDAGEEDVDIGEDIPIEDYPSVEIERDGTAVAAAASSGSSSSGSSSSSGGSSSSSDSGSGGSSSGSDSDADSVQSPFVEAKEAQC
B4: GTE9 (endogenous) (protein, UniProt Q93YS6 1-688)
chain: MTERNGGFPGDYCFEAPGGDYDEGSDSPRVSEGSNCSKRKVGETFGVSKMVLPLSGLSSSDRKELIRRLRQELEQIRVFQKNFELSRTVALTSSSASGLTRVKSFGMSRCSTGPGKTVNPISAASKPTPVTTAVMLLMKQCEALLKRLMSHQYGWVFNTPVDVVKLNILDYFNVIEHPMDLGTVKNKLTSGTYSCPSEFAADVRLTFSNAMTYNPPGNDVYVMADTLRKFFEVRWKTLEKKLSGTKVHTEPSNLDAHKEKHIVIPVPMAKKRKTTAVDCENVVDPAKRVMTDEDRLKLGKDLESLTEFPAQLINFLRDHNSNEGGIGDDEIEIDINDLSDHALFQLRDLLDEHLREIQNKKSSVEPCEIELLHGSVPGNSSMQHCDGSELDDEVVDIGENEHPTSSISPVTIEKDLVLGNSNGNSLGSVSGDPKMSSLPRASKGLGTIDLEPMLDGATSASPTRGSSVGGLDQLESASPEKISSVEADCQQDGNSAQNEKQLPPEKSYRAAILKNRFADIILKAREKPLNQNDTRDPEKLQREREELELQKKKEKARLQAEAKAAEEARRKAEAQAAAEAAAEAKRKLELEREAARQALMEMEQSVELNENAKFLEDLELLKTVDTDHLTNTIEEEDGPDVGLRSFSFGGSNPLEQLGLFMKQDEDEEEADPLTSPAPEIDIEEGEID
B5: GTE8 (endogenous) (protein, UniProt Q9LK27 1-813)
chain: MVESAAFPGGYYRNTFEAPEESEGSGSSAQIDTEVTASENSSTPARKCIMLNSNDEDPYGVQRQVISLYNMSQSERKDLIYRLKLELEQTKIVLKNAELQRMNPAAVSSTSDRVGFSTGQKISSRVSNSKKPSDFAVGSGKKVRHQNGTSRGWNRGTSGKFESSKETMTSTPNITLMKQCDTLLRKLWSHPHSWVFQAPVDVVKLNIPDYLTTIKHPMDLGTVKKNLASGVYSSPHEFAADVRLTFTNAMTYNPPGHDVHIMGDILSKLFEARWKTIKKKLPPCSMQTLPAVTLEPNDERKAAISVPPAKKRKMASPVRESVPEPVKPLMTEVERHRLGRQLESLLDELPAHIIDFLKKHNSNGGEIAEDEIEIDIDVLSDEVLVTLRNLLDEYIQNKEAKQTNVEPCEIELINGSRPSNSSLQRGNEMADEYVDGNEPPISRSSSDSDSGSSEDQSDDAKPMVQGDSSKMPETANSEAQRDENTRIDDLFVGSQSTGALEQMDICSQQKLSSDESDGQHEGNILETPASSEKRYRAALLKNRFADIILKAREKPLPQNGIKGDPERLRKEREELVLQKKKEKARLQAEAEAAEDARRQAEAEAAAEAAAEAKRKRELEREAARQALLKMEKTVEINENSRFLEDLEMLSSSAPEQLPSSAEETSPERPLDALGSFNLRGSNPLEQLGLYMKQDDDEEEPEAPAVPKPDETSTERPLDALGSFKLGECNPLEQLGLYMKQDDGEEEEPEAPVVPKPNETSLERPVDAFGSFNLKGSNPLEQLGLYMKQDDDEEEPEAPAVPNLANDVEEGEID
B6: GTE11 (endogenous) (protein, UniProt Q93ZB7 1-620)
chain: MTVRNGGFPGDYNRNSFDSPGGCDDSPNASKDDETFGVPRIVLPLSDLSSSERRKWIHTLRQELEQLRSFQKSVGDLLPISKIVTSTPASNVSRPKSFGMSRCSTGPGKRVLPFTATKPEPVTTSTMLRMKQCESLLKRLMSQQHCWLFNTPVDVVKLNIPDYFTIIKHPMDLGTVKSKLTSGTYSSPSEFSADVRLTFRNAMTYNPSDNNVYRFADTLSKFFEVRWKTIEKKSSGTKSEPSNLATLAHKDIAIPEPVAKKRKMNAVKRNSLLEPAKRVMTDEDRVKLGRDLGSLTEFPVQIINFLRDHSSKEERSGDDEIEIDINDLSHDALFQLRDLFDEFLRENQKKDSNGEPCVLELLHGSGPGNSLTQHCDGSELEDEDVDIGNYEHPISHISTVRTEKDSVGGLNQMEDASRGKLSLIEGADGHQDGNSAPKEKELPPEKRYRAALLKNRFADIILKAQEITLNQNEKRDPETLQREKEELELQKKKEKARLQAEAKEAEEARRKAEAQEAKRKLELEREAARQALLEMEKSVEINENTRFLKDLELLKTVNTDQLRNLRDVGSESDGLAVFGFGGSNPLEQLGLFMKHEEDEDESDMLAFPDPGNEVEEGEID

Molecular target: T1, GTE4-FLAG (Arabidopsis thaliana)
Assay: affinity purification with mass spectrometry

binding, binds:
B1

Molecular target: T2, EML2-FLAG (Arabidopsis thaliana)
Assay: affinity purification with mass spectrometry

binding, binds:
B2
B3
B4
B5
B6
